Laboratory results as given in patent publication US11666640B2, “Glucose oxidase compositions as a neonate anticonvulsant” (PENN STATE RESEARCH FOUNDATION, priority 2018, dated 2023).
Entries after “also recorded” stand apart in the source; their conditions may differ. At least one compound was matched to its structure with a doubt left.

Legend:
[1] = system: KA induced neonatal seizure; experiment: KA-induced neonatal seizure, in vivo EEG recording; parameters: species or system rat; settings: P10-12, KA 2 mg/kg i.p.; drug i.p. 10 min after KA: NaGcA 2 g/kg, phenobarbital 25 mg/kg, bumetanide 2 mg/kg
Procedure: For example, neonatal rats were administered gluconate to determine the effect on in vivo epileptic seizures in neonatal and adult animals. […] FIGS. 14A and 14B; Dzhala et al., “NKCC1 transporter facilitates seizures in the developing brain” Nature Medicine 11:1205-1213 (2005). […] FIGS. 14C and 14D.
To test the in vivo anti-epilepsy effects of gluconate in neonatal and adult rodents, P8-12 Sprague-Dawley rats or 2-month old male C57BL/6 mice were deeply anesthetized with pentobarbital sodium (50 mg/kg for neonatal rat and 100 mg/kg for adult mice, intraperitoneal injection). Two stainless steel screws (1 mm in diameter) were inserted in the skull above the cortex as EEG recording electrodes, one ground electrode as well as one reference electrode were located +1.8 mm anterior to bregma, ±0.5 mm lateral to the midline, and 1 mm below the cortical surface. All electrodes were attached to a micro-connector and fixed onto the skull with dental cement. After surgery, neonatal rats were returned to their mothers and allowed to recover for 2 days prior to subsequent EEG recording. […]
The baseline of EEG was recorded for 0.5-1 hr to allow the animal to adapt to the environment. […] Epileptiform activity was monitored for 1 hr after PTZ injection. […]
Power was calculated in 1-min time windows by integrating the power of dominant frequency bands from 1 to 100 Hz (EEG band).

[2] = system: neonatal seizures; settings: neonates, literature; cited from earlier work

CCC1(c2ccccc2)C(=O)NC(=O)NC1=O [phenobarbital, reference compound]
epileptic seizure (burst) activity in EEG [1]: modest effect; also recorded: not as potent as gluconate
efficacy in neonatal seizures [2]: 50%
